Laboratory results: PubChem BioAssay AID686937 (Drosophila RNAi Screening Center, 2013)

Test: 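Genes in the fly needed for secretion of protein constitutively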 (primary screen)
Cells: Drosophila S2 cells expressing secreted horseradish peroxidase
Reagent: long dsRNA against Drosophila genes
Duration: about 5.5 days (5 days dsRNA, then 12 h reporter induction)
Treatment: reporter expression induced after 5 days of dsRNA, read 12 h later; inducer not stated
Measurement: 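Chemiluminescent measurement of peroxidase in the medium 12 h after reporter induction, following 5 days of dsRNA, given as a z-score per plate; higher means more secretion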
Scale: z-score: higher = more reporter secreted into medium
The deposit covers about 23,000 reagents; shown is an unselected part of those with a known target gene and a result. 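Reduced-secretion tags in replicate 1 do not always agree with the z-scores; no criterion for assigning the tags was given.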 The numbers tell different reagents against one gene apart. A plus sign joins genes that one reagent is predicted to hit. Not all columns of the deposit are shown. Reagent sequences are not shown. Not given: the amount of reagent.

z-score, replicate 1, by gene and reagent
CG15260: #1 0.49
CG6984: #1 0.28
CG8519: #1 0.36
CG14397: #1 0.26
Ir84a: #1 0.34
CG4367: #1 0.27
CG2211: #1 0.35
Cog8: #1 -0.06
SdhCL: #1 0.48
Ravus: #1 0.39
Pp1-13C: #1 -0.04
CNT2: #1 0.23
CR13656: #1 0.09; #2 0.19
Ptx1: #1 0.03
Lis-1: #1 0.39
Mst87F: #1 -0.06
CG11127: #1 0.05
CG3164: #1 0.2
erm: #1 0.25
CG11693: #1 0.07
l(2)34Fc: #1 -0.06
Vps16A: #1 0.2
caly: #1 0.57
Vha16-2: #1 0.39
CG32633: #1 0.4
Osi12: #1 0.42
p53: #1 0.23
CG9514: #1 0.31; #2 0.38
Dr: #1 0.49; #2 -1.39
be: #1 0.15; #2 0.04; #3 0.21
CG10081: #1 0.33
CG13962: #1 -0.14
mRpL54: #1 0.15
CG34029: #1 0.58
Lip1: #1 -0.12
mRpL45: #1 0.39
ND-39: #1 0.14
nenya: #1 0.1
fid: #1 -0.26; #2 0.5
et: #1 0.46
CG18223: #1 -4.66
TotF: #1 0.45
CG4891: #1 0.25
CG1143: #1 -0.01
CG42694: #1 0.16
Mi-2 + Su(Tpl): #1 0.6
CG34325: #1 0.27; #2 0.18
CG15549: #1 0.15
CG13137: #1 0.22
CG43066: #1 -1.83
CG3216: #1 0.39
CG13043: #1 0.08
mthl2: #1 0.11
COX6CL: #1 -0.3
CG16865: #1 -0.16
Uqcc1 + CG9948: #1 -0.24
Vha14-1: #1 -0.1
CG34148 + P5CDh2: #1 0.51
VhaM9.7-d: #1 0.07
CG34160: #1 -0.25
SrpRalpha: #1 -1.63
Pym: #1 -4.98
Tsp29Fb: #1 0.47
CG14691: #1 0.21
Plekhm1: #1 -0.34
CG15890: #1 0.35
CG32091: #1 0.41; #2 -0.03
S2P: #1 -0.31
Six4: #1 0.46
simj: #1 0.61
CG3698: #1 0.42
CG7786: #1 0.36
CG12643: #1 0.16
Nlp: #1 -0.38

Part of the list above in another layout:
gene	dsRNA no.	z-score, replicate 1
CG8519	1	0.36
CG14397	1	0.26
Ir84a	1	0.34
CG4367	1	0.27
CG2211	1	0.35
Cog8	1	-0.06
SdhCL	1	0.48
Ravus	1	0.39
Pp1-13C	1	-0.04
CNT2	1	0.23
CR13656	1	0.09
CR13656	2	0.19
Ptx1	1	0.03
